Experimental data as given in PubChem BioAssay AID504648 (National Center for Advancing Translational Sciences (NCATS), 2011).
Among all 390,000 compounds or so, about 610 (0.16%) were called active. The shares of active, inactive and inconclusive entries below differ from those in the screen. Calls follow the shape of the dose curve; as a rule, active = well fitted inhibition curve with a large enough effect; inconclusive = small, poorly fitted or top-dose-only effect, or effect the other way, or another doubt; inactive = no such curve, though single readings can be large or run the other way. Where the call is inconclusive, the potency comes from a doubtful curve fit.

Assay: Nrf2 qHTS screen for inhibitors: counterscreen for cytotoxicity
Settings: A549 ARE-Fluc cells, CellTiter-Fluor viability, 18-24 h; activity change, negative = cytotoxicity: at 46 µM (top of the series)
Procedure, shortened: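 Cytotoxicity counterscreen: CellTiter-Fluor fluorescence was measured in A549 ARE_Fluc cells after 18-24 h of compound exposure in a concentration series. The subsequent BugLite luminescent read reports ARE-luciferase activity.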
% is scaled to controls: 0 for no effect and ±100 for the full control effect; potency is read from the fitted curve at half-maximal effect.

| SMILES | activity change, negative = cytotoxicity | Potency |
| --- | --- | --- |
| Cc1nn(-c2ccccc2)c(C)c1NC(=O)COC(=O)/C=C/c1ccccc1 | inactive: 0.373% |  |
| CSc1nc(-c2ccc(C)cc2)nc(C(Cl)Cl)n1 |  | inconclusive: 8.2 µM [falling, partial curve, poor fit] |
| O=[N+]([O-])c1ccc(NCc2ccncc2)cc1 |  | inconclusive: 29.1 µM [falling, partial curve, poor fit] |
| CC(=O)Nc1cccc(OCC(=O)/C=C2\N(C)c3ccccc3C2(C)C)c1 |  | inconclusive: 29.1 µM [falling, single point] |
| C[C@H]1CN([C@@H](C)CO)C(=O)Cc2cc(NC(=O)C3CC3)ccc2O[C@H]1CN(C)Cc1ccc(Oc2ccccc2)cc1 |  | inconclusive: 18.4 µM [falling, single point] |
| FC(F)(F)c1cccc(N2CCN(c3ccc4nnc(-c5ccccc5)n4n3)CC2)c1 |  | inconclusive: 29.1 µM [falling, single point] |
| COC(=O)c1ccc(COc2ccccc2/C=N/NS(=O)(=O)c2ccccc2)cc1 | inactive: -2.12% |  |
| COc1cc(-c2noc(CSc3nc(-c4ccccc4)cc(=O)[nH]3)n2)cc(OC)c1OC | inactive: 1.24% |  |
| OCCN1CCN(c2nc(-c3ccccc3)nc3c2oc2ccccc23)CC1 |  | inconclusive: 16.4 µM [falling, single point] |
| O=C(Nc1ccc(Br)cn1)c1ccc2ccccc2c1 |  | inconclusive: 25.9 µM [falling, partial curve, poor fit] |
| COc1ccc(-c2nnc3n2N=C(C)CS3)cc1 | inactive: -2.65% |  |
| COCCn1nnnc1C(c1cc2cc(C)ccc2[nH]c1=O)N1CCc2ccccc21 (stereo not given) | inactive: -11.6% |  |
| Cc1ccc(C)c(N2N=C(C(=O)Nc3ccccc3N3CCCC3)CCC2=O)c1 |  | inconclusive: 9.2 µM [falling, partial curve, poor fit] |
| CCN(CC)CCn1c(=N)n(CC(=O)c2ccc(C)cc2)c2ccccc21 |  | inconclusive: 29.1 µM [falling, single point] |
| COc1ccc(C(=O)Nc2ccc(Cl)cc2C(=O)NCc2ccco2)cc1OC |  | inconclusive: 29.1 µM [falling, single point] |
| COc1cccc(C(=O)c2sc(NC(C)C)nc2N)c1 |  | inconclusive: 16.4 µM [falling, partial curve, poor fit] |
| CCCCCCSc1cccc(-c2nc3ccc(C)cn3c2NCc2ccccc2)c1 | inactive: -9.98% |  |
| O=[S+]([O-])(c1c(F)cccc1F)N1CCN([S+](=O)([O-])c2csc3ccccc23)CC1 | inactive: 17.3% |  |
| O=C1N=c2ccccc2=C1c1c(O)n(-c2cccc(F)c2)[nH]c1=O |  | inconclusive: 23.1 µM [activator, single point] |
| O=C1NC(=Nc2ccccc2)/C(=C/c2ccco2)S1 |  | inconclusive: 18.4 µM [falling, partial curve, poor fit] |

| SMILES | activity change, negative = cytotoxicity | Potency |
| --- | --- | --- |
| Cc1ccc(C(C#N)c2ccc3c(C(F)(F)F)cc(C(F)(F)F)nc3n2)cc1 (stereo not given) |  | inconclusive: 29.1 µM [falling, partial curve, poor fit] |
| COc1ccc(CNC(=O)[C@H](C)NC(=O)C2CCN(C(=O)[C@@H](N)Cc3ccccc3)CC2)cc1 |  | inconclusive: 32.6 µM [falling, partial curve, poor fit] |
| CCOc1ccc(N(CC(=O)Nc2cc(C)cc(C)c2)S(C)(=O)=O)cc1 | inactive: -11.6% |  |
| Cc1cc(/C=C2\SC(=Nc3ccccc3)NC2=O)c(C)n1-c1ccc(S(N)(=O)=O)cc1 |  | active: 8.2 µM |
| CSCCC(C(=O)OCC(=O)c1ccc(C)c(C)c1)N1C(=O)c2ccccc2C1=O (stereo not given) |  | inconclusive: 8.2 µM [activator, partial curve, poor fit] |
| CC1(C)C(=O)Nc2ccccc2N1C(=O)Cn1ncc(Cl)c(Cl)c1=O | inactive: 10.2% |  |
| O=C1Cc2c([nH]c3ccc([N+](=O)[O-])cc23)-c2ccccc2N1 |  | inconclusive: 5.8 µM [falling, partial curve, poor fit] |
| CC(C)CN1C(=O)C(=O)N(CC(=O)Nc2cc(Cl)ccc2Oc2ccccc2)C1=O |  | inconclusive: 13 µM [falling, partial curve] |
| Cc1ccc(C)c(Cn2nnc3c(=O)[nH]c(C4CCCN(C(=O)C5CCCCC5)C4)nc32)c1 (stereo not given) |  | inconclusive: 29.1 µM [falling, partial curve, poor fit] |
| Cc1cc(-c2ccc(C)c(S(=O)(=O)NCC3CCN(Cc4cccc(F)c4)CC3)c2)on1 |  | inconclusive: 18.4 µM [falling, partial curve, poor fit] |
| CCOC(=O)CCCC(=O)Nc1ncnc2c1C(c1ccccc1)c1c(ccc3ccccc13)O2 (stereo not given) |  | inconclusive: 18.4 µM [falling, single point] |
| CC(=O)c1c(C)[nH]c(C(=O)OCc2csc(CC(=O)Nc3ccccc3C)n2)c1C | inactive: -14.7% |  |
| Cc1cccc(C)c1OCC(=O)N/N=C/c1cc2c(cc1[N+](=O)[O-])OCO2 |  | inconclusive: 25.9 µM [falling, single point] |
| Cc1ccc(C(=O)c2cc([N+](=O)[O-])ccc2N2CCOCC2)c(C)c1 |  | inconclusive: 11.6 µM [falling, partial curve] |
| CC(C)c1ccc(NC(=O)c2cc(S(=O)(=O)NC3CCCCC3)ccc2F)cc1 |  | inconclusive: 32.6 µM [falling, single point] |
| Cc1ccc(NC(=O)NC(=O)CN2C(=O)NC3(CCCCCCC3)C2=O)c(C)c1 |  | inconclusive: 18.4 µM [falling, partial curve, poor fit] |
| O=C(C1CCC(CNS(=O)(=O)c2cccs2)CC1)N1CCN(c2ccc(Cl)cc2)CC1 (stereo not given) |  | inconclusive: 13 µM [falling, partial curve] |
| COc1ccc(CCNC(=O)Cn2c(=O)nc(-c3ccccc3F)c3cc(Cl)ccc32)cc1OC |  | inconclusive: 16.4 µM [falling, single point] |
| CCOc1cc(NC(=O)c2ccco2)c(OCC)cc1NC(=O)CCC(=O)NCc1cccnc1 |  | inconclusive: 32.6 µM [activator, partial curve, poor fit] |
| COc1cc(NC(=S)Nc2ccccn2)c(OC)cc1Cl | inactive: 1.04% |  |

Filtered by structure, the entries above containing a CF3 group.

| SMILES | activity change, negative = cytotoxicity | Potency |
| --- | --- | --- |
| FC(F)(F)c1cccc(N2CCN(c3ccc4nnc(-c5ccccc5)n4n3)CC2)c1 |  | inconclusive: 29.1 µM [falling, single point] |
| Cc1ccc(C(C#N)c2ccc3c(C(F)(F)F)cc(C(F)(F)F)nc3n2)cc1 (stereo not given) |  | inconclusive: 29.1 µM [falling, partial curve, poor fit] |
